Source: PMC11020266
Results are given in words; binding and its absence hold for the method and conditions named. Binding seen in cells or lysates may run through a third protein. Some binding calls cover weakened binding; strength is not graded here. One block for each molecule: values may come before it.

By UniProt entry, the sequences of proteins in these tests, tags left out.
UniProt Q8K1M6: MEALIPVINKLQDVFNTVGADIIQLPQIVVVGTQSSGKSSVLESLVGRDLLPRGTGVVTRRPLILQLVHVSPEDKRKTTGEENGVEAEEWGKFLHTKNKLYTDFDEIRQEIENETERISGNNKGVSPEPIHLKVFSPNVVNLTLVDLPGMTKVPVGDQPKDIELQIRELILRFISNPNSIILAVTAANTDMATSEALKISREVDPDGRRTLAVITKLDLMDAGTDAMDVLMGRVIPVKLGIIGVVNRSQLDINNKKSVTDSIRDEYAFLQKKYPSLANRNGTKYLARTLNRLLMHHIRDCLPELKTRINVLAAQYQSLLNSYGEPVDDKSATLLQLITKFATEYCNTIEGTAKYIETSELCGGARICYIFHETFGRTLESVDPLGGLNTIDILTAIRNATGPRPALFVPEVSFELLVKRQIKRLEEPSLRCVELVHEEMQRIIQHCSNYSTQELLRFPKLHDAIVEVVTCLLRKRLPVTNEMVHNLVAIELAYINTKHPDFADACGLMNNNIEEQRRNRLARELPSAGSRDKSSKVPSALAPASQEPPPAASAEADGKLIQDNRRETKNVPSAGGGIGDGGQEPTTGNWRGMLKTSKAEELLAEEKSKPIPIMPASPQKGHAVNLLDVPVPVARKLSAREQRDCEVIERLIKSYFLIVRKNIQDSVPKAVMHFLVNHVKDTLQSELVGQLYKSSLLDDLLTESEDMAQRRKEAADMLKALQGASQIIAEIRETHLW

Legend:
[1] = target: T1, Gasdermin D (mouse (endogenous in hippocampus)) (UniProt Q9D8T2); experiment: co-IP; mouse hippocampal lysate supernatant; immunoprecipitation with anti-GSDMD, anti-Drp1 or IgG control for 2 h, then protein A/G-agarose beads overnight; five washes with lysis buffer; western blotting with anti-Drp1 and anti-GSDMD
T1 sequence: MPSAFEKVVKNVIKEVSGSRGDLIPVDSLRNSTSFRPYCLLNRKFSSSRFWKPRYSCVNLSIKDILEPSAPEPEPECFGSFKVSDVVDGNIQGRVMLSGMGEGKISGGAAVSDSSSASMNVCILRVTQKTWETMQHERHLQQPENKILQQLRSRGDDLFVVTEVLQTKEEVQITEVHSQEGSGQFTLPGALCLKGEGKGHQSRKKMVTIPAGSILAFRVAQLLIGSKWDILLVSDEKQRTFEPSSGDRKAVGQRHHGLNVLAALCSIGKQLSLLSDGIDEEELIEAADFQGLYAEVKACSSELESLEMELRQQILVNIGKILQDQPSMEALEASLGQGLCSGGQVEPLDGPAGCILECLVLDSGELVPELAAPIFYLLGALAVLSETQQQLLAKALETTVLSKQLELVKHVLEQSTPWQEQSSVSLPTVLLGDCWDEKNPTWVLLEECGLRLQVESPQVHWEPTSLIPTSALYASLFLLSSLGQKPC

[2] = target: Dynamin-related protein 1 (mouse (endogenous in hippocampus)) (UniProt Q8K1M6); experiment: as above

binding [1]: binds
Molecule: Dynamin-related protein 1 (from UniProt Q8K1M6 1-736)

binding [2]: binds
B1: Gasdermin D (protein, UniProt Q9D8T2 1-487)
chain: T1 sequence
